Record: PubChem BioAssay AID504764 (Drosophila RNAi Screening Center, 2011)
The screen tested about 22,000 reagents; below is a random part of those that have a named target and a result. Over the whole deposit, 403 (1.9%) were called active. 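Unnormalised raw counts per well; ratio z-scores behind the hit calls and whether each hit raises or lowers signal are not deposited.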 Reagents against one gene are numbered here. Names joined by + are all predicted targets of the reagent. Not given: the amount of reagent.

Assay: 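Genome-wide screen for regulators of Notch-driven gene expression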 (primary screen)
System: Drosophila Kc167 cells
Reagents: long dsRNA against Drosophila genes
Time to read-out: about 5 days (4 days dsRNA, then 24 h after transfection)
Treatment: transfection of constitutively active membrane-tethered Notch lacking the extracellular domain, read 24 h later
Read-out: 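Light from a Notch-responsive E(spl)m3 luciferase reporter under active Notch, with control-promoter and no-Notch reporter wells to normalise; raw counts from paired wells a and b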
Reading the numbers: induced reporter light, run 1, well a and induced reporter light, run 1, well b: higher = more light from the Notch target reporter with active Notch; control promoter light, run 1, well a and control promoter light, run 1, well b: higher = more light from the viral control promoter (cell number, transfection, viability); uninduced reporter light, run 1, well a: higher = more light from the Notch target reporter without active Notch
Hit rule: 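Wells with low control signal or poorly matching duplicates excluded; duplicates averaged; per source plate, z beyond ±2 for induced/control log2 ratio or beyond ±1.8 for induced/uninduced marks a hit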
Calls: active = modifier hit (raised or lowered Notch signal); inactive = not a hit

| gene | reagent | induced reporter light, run 1, well a | induced reporter light, run 1, well b | control promoter light, run 1, well a | control promoter light, run 1, well b | uninduced reporter light, run 1, well a | Outcome |
| --- | --- | --- | --- | --- | --- | --- | --- |
| CG34235 + CG30058 + CG34312 | 1 | – | – | – | – | – | inactive |
| Ugt317A1 | 1 | 1.77e5 | 1.41e5 | 1.66e5 | 1.56e5 | 11965 | inactive |
| CG42335 | 1 | 1.94e5 | 1.40e5 | 1.73e5 | 1.50e5 | 12085 | inactive |
| CG42335 | 2 | 1.87e5 | 1.74e5 | 2.39e5 | 2.33e5 | 14640 | inactive |
| CG31038 | 1 | 1.48e5 | 1.46e5 | 1.81e5 | 1.90e5 | 9310 | inactive |
| CG31038 | 2 | 1.28e5 | 1.34e5 | 2.08e5 | 1.92e5 | 14805 | inactive |
| CG31038 | 3 | 1.01e5 | 1.04e5 | 1.48e5 | 1.62e5 | 7950 | inactive |
| CG10508 | 1 | 1.47e5 | 1.27e5 | 1.01e5 | 1.21e5 | 8620 | inactive |
| CG10508 | 2 | 1.16e5 | 79160 | 87355 | 66535 | 7605 | inactive |
| Pvf1 | 1 | 1.16e5 | 1.19e5 | 1.02e5 | 54145 | 7920 | inactive |
| Dd | 1 | 1.43e5 | 1.18e5 | 97550 | 78755 | 7892 | inactive |
| Icmt | 1 | 1.83e5 | 1.63e5 | 2.20e5 | 1.88e5 | 9170 | inactive |
| CG17266 | 1 | 1.89e5 | 1.88e5 | 2.09e5 | 1.51e5 | 13980 | inactive |
| CG13002 | 1 | 1.08e5 | 1.02e5 | 1.48e5 | 1.32e5 | 13375 | inactive |
| EbpIII | 1 | 1.79e5 | 1.96e5 | 2.14e5 | 2.10e5 | 15338 | inactive |
| DNAlig1 | 1 | 1.88e5 | 1.62e5 | 1.45e5 | 1.91e5 | 13205 | inactive |
| CG17019 | 1 | 1.37e5 | 1.43e5 | 1.27e5 | 1.33e5 | 12020 | inactive |
| Arfrp1 | 1 | 2.90e5 | 2.06e5 | 3.02e5 | 3.71e5 | 14940 | inactive |
| Ythdc1 | 1 | 1.23e5 | 1.13e5 | 94535 | 29800 | 11195 | inactive |
| dgt1 | 1 | 74380 | 82190 | 1.27e5 | 1.10e5 | 5295 | inactive |
| Surf6 | 1 | 1.50e5 | 1.49e5 | 2.15e5 | 1.90e5 | 10920 | inactive |
| CG6683 | 1 | 1.01e5 | 1.08e5 | 81310 | 26425 | 10142 | inactive |
| obst-J | 1 | 1.36e5 | 1.41e5 | 1.21e5 | 1.34e5 | 13800 | inactive |
| DNAlig4 | 1 | 57875 | 65685 | 70680 | 51055 | 5435 | inactive |
| Naa40 | 1 | 1.40e5 | 1.52e5 | 1.70e5 | 1.75e5 | 12980 | inactive |
| Hmr | 1 | 1.14e5 | 1.32e5 | 2.57e5 | 2.53e5 | 8935 | inactive |

Limited to “induced reporter light, run 1, well a”, for 7 of the entries above:
dgt1	74380
Surf6	1.50e5
CG6683	1.01e5
obst-J	1.36e5
DNAlig4	57875
Naa40	1.40e5
Hmr	1.14e5

The results go on.
| gene | reagent | induced reporter light, run 1, well a | induced reporter light, run 1, well b | control promoter light, run 1, well a | control promoter light, run 1, well b | uninduced reporter light, run 1, well a | Outcome |
| --- | --- | --- | --- | --- | --- | --- | --- |
| flw | 1 | 63435 | 75325 | 66520 | 1.00e5 | 4760 | inactive |
| flw | 2 | 1.80e5 | 1.48e5 | 1.80e5 | 1.69e5 | 11310 | inactive |
| mAChR-C | 1 | 1.34e5 | 1.19e5 | 2.08e5 | 2.57e5 | 10685 | inactive |
| U2af38 | 1 | 65990 | 64435 | 67595 | 58290 | 5300 | inactive |
| CR33317 | 1 | 37900 | 25000 | 29810 | 26650 | 2000 | inactive |
| Dna2 | 1 | 1.76e5 | 1.56e5 | 2.19e5 | 2.33e5 | 12040 | inactive |
| CG18171 | 1 | 1.04e5 | 1.01e5 | 2.36e5 | 1.53e5 | 6105 | inactive |
| CG11586 | 1 | 1.44e5 | 1.31e5 | 98000 | 47780 | 10060 | inactive |
| timeout | 1 | 1.28e5 | 1.67e5 | 1.79e5 | 1.49e5 | 11925 | inactive |
| timeout | 2 | 2.45e5 | 2.51e5 | 2.21e5 | 2.23e5 | 17740 | inactive |
| timeout | 3 | 2.23e5 | 2.42e5 | 1.92e5 | 1.90e5 | 16525 | inactive |
| timeout | 4 | 2.76e5 | 3.21e5 | 2.43e5 | 2.38e5 | 20405 | inactive |
| timeout | 5 | 2.75e5 | 2.74e5 | 2.47e5 | 2.29e5 | 22490 | inactive |
| CG18659 | 1 | 1.85e5 | 1.64e5 | 1.84e5 | 1.99e5 | 14290 | inactive |
| Gar1 | 1 | 45750 | 25195 | 38430 | 65965 | 2615 | inactive |
| cbt | 1 | 1.67e5 | 1.78e5 | 2.25e5 | 2.11e5 | 19130 | inactive |
| CG8665 | 1 | 22690 | 41470 | 44610 | 43980 | 2410 | inactive |
| Boot | 1 | 1.93e5 | 1.66e5 | 2.39e5 | 2.04e5 | 16882 | inactive |
| CG15695 | 1 | 1.84e5 | 1.83e5 | 2.21e5 | 2.01e5 | 14925 | inactive |
| CG1441 | 1 | 1.53e5 | 1.61e5 | 1.63e5 | 1.44e5 | 12905 | inactive |
| CG4572 | 1 | 1.64e5 | 1.63e5 | 1.84e5 | 2.09e5 | 13370 | inactive |
| dysc | 1 | 1.02e5 | 81085 | 1.12e5 | 1.20e5 | 6830 | inactive |
| dysc | 2 | 1.53e5 | 1.21e5 | 2.61e5 | 2.03e5 | 13510 | inactive |
| Cpr76Ba | 1 | 1.21e5 | 93655 | 1.05e5 | 97430 | 8530 | inactive |
| Cpr49Ah | 1 | 85395 | 80745 | 1.11e5 | 87680 | 8820 | inactive |
| PAN3 | 1 | 1.05e5 | 1.34e5 | 1.39e5 | 39385 | 14685 | inactive |
| CG14362 | 1 | 2.62e5 | 2.35e5 | 2.30e5 | 2.14e5 | 19510 | inactive |
| CG9581 | 1 | 1.44e5 | 1.28e5 | 1.28e5 | 72605 | 12360 | inactive |
| CG1092 | 1 | 1.06e5 | 1.36e5 | 63270 | 77405 | 8690 | inactive |
| CG17207 | 1 | 3715 | 5415 | 9615 | 5700 | 442 | inactive |
| CG15293 | 1 | 1.44e5 | 1.33e5 | 1.51e5 | 1.72e5 | 12100 | inactive |
| CG10081 | 1 | 26530 | 29040 | 40495 | 43590 | 2790 | inactive |
| Nepl16 | 1 | 1.68e5 | 1.37e5 | 2.06e5 | 2.01e5 | 13770 | inactive |
| mfas | 1 | 1.11e5 | 1.13e5 | 83560 | 77770 | 9405 | inactive |
| vtd | 1 | 24945 | 49790 | 36715 | 39480 | 6415 | inactive |
| form3 | 1 | 1.87e5 | 1.57e5 | 1.86e5 | 2.21e5 | 15785 | inactive |
| form3 | 2 | 77375 | 1.06e5 | 58685 | 25390 | 10470 | inactive |
| form3 | 3 | 1.69e5 | 1.73e5 | 2.08e5 | 1.58e5 | 9338 | inactive |
